Reference: PubChem BioAssay AID1259405 (NCATS, 2018)
In all, the deposit lists about 50,000 reagents; below is an unselected part. Over the whole deposit, about 4,000 (8%) are marked active. 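Mouse siRNA library applied to hamster cells; one well for each siRNA.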 Unmarked entries are inactive. Reagents against one gene are numbered here.

- Screen: 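Knock-downs that lift recombinant protein yield in hamster ovary cells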 (primary screen)
- Cell system: Chinese hamster CHO-K1 ovary cells with stable secreted eGFP expression
- Reagent: single siRNA against mouse genes, 0.8 pmol siRNA per well (2 µl of 400 nM stock)
- Timing: 3 days
- Measurement: 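Per-well intracellular GFP measured by laser scanning cytometry, plus viability from ATP luminescence, each relative to plate median of non-targeting control wells, in %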
- Reading the numbers: GFP, % of control: higher = more GFP per well, higher productivity; viability (ATP), % of control: higher = more viable cells (more ATP)
- Rule for the call: 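Called active when intracellular GFP, relative to negative control, is at or above 120%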

| gene | reagent no. | GFP, % of control | viability (ATP), % of control |
| --- | --- | --- | --- |
| Or1ad8 | 1 | 39.7 | 49.9 |
| Or1ad8 | 2 | 98.7 | 68.2 |
| Or1ad8 | 3 | 79 | 117 |
| Stambpl1 | 1 | 105 | 118 |
| Stambpl1 | 2 | 69.6 | 65.5 |
| Ino80e | 1 | 58.8 | 58.4 |
| Ino80e | 2 | 82.2 | 78.9 |
| Ino80e | 3 | 79 | 77.2 |
| Slc5a4b | 1 | 108 | 67.4 |
| Slc5a4b | 2 | 98.2 | 93 |
| Slc5a4b | 3 | 81.4 | 78.9 |
| Dffb | 1 | 103 | 78.4 |
| Dffb | 2 | 72.9 | 55.9 |
| Dffb | 3 | 60.1 | 74.3 |
| Elp1 | 1 | 70.8 | 93.1 |
| Elp1 | 2 | 73.9 | 65.1 |
| Cox5a | 1 | 61.6 | 70 |
| Cox5a | 2 | 52.1 | 51.5 |
| Tubb2a | 1 | 51.1 | 90.2 |
| Tubb2a | 2 | 83.7 | 87.3 |
| Pttg1 | 1 | 82 | 91.1 |
| Pttg1 | 2 | 67.2 | 76.7 |
| Pttg1 | 3 | 70.3 | 87.9 |
| Pcdhga1 | 1 | 109 | 75.5 |
| Pcdhga1 | 2 | 62.9 | 61.2 |
| Pcdhga1 | 3 | 51.8 | 60.7 |
| Cblif | 1 | 45.5 | 46 |
| Cblif | 2 | 62.2 | 55.7 |
| Cblif | 3 | 67.9 | 35.7 |
| H2al2a | 1 | 95.4 | 102 |
| H2al2a | 2 | 88.9 | 81 |
| H2al2a | 3 | 71.6 | 68.4 |

Next part (9 carried over from the part before).
| gene | reagent no. | GFP, % of control | viability (ATP), % of control |
| --- | --- | --- | --- |
| Pcdhga1 | 1 | 109 | 75.5 |
| Pcdhga1 | 2 | 62.9 | 61.2 |
| Pcdhga1 | 3 | 51.8 | 60.7 |
| Cblif | 1 | 45.5 | 46 |
| Cblif | 2 | 62.2 | 55.7 |
| Cblif | 3 | 67.9 | 35.7 |
| H2al2a | 1 | 95.4 | 102 |
| H2al2a | 2 | 88.9 | 81 |
| H2al2a | 3 | 71.6 | 68.4 |
| Or51v14 | 1 | 76 | 72.1 |
| Or51v14 | 2 | 62.1 | 50.6 |
| Or51v14 | 3 | 39.1 | 95.8 |
| Or5d14 | 1 | 102 | 79 |
| Or5d14 | 2 | 83 | 80.5 |
| Or5d14 | 3 | 89.1 | 72.3 |
| Abca7 | 1 | 55.8 | 111 |
| Abca7 | 2 | 72 | 82.3 |
| Abca7 | 3 | 102 | 82.5 |
| Asic5 | 1 | 106 | 102 |
| Asic5 | 2 | 50.2 | 30.8 |
| Asic5 | 3 | 102 | 96.4 |
| Hoxb9 | 1 | 76.8 | 115 |
| Hoxb9 | 2 | 108 | 115 |
| Hoxb9 | 3 | 56.5 | 75.4 |
| Ap3m1 | 1 | 77.2 | 72.4 |
| Ap3m1 | 2 | 40.9 | 50.8 |
| Ap3m1 | 3 | 72.5 | 75.6 |
| Spata2l | 1 | 57.7 | 70.6 |
| Spata2l | 2 | 77.4 | 72.4 |
| Spata2l | 3 | 81.8 | 81 |
| Stil | 1 | 73 | 74.4 |
| Stil | 2 | 38.1 | 55.6 |
| Stil | 3 | 62.8 | 71.7 |
| Mlf2 | 1 | 73.3 | 35.9 |
| Mlf2 | 2 | 46.7 | 45.6 |
| Mlf2 | 3 | 123 (active) | 56.7 |
| Hid1 | 1 | 74.2 | 71.4 |
| Hid1 | 2 | 38.2 | 28.9 |
| Hid1 | 3 | 97.5 | 108 |
| Cdk1 | 1 | 73.2 | 74.5 |
| Cfap96 | 1 | 53.6 | 76.2 |
| Cfap96 | 2 | 81.5 | 67.9 |
| Cfap96 | 3 | 62.6 | 82.2 |
| Or1ak2 | 1 | 101 | 74.5 |
| Or1ak2 | 2 | 87.2 | 85.2 |
| Or1ak2 | 3 | 109 | 58 |
| Vmn1r211 | 1 | 42.4 | 36.5 |
| Vmn1r211 | 2 | 85.3 | 53.7 |
| Vmn1r211 | 3 | 91.8 | 84.4 |
| Adam34l | 1 | 81.6 | 49.5 |
| Adam34l | 2 | 45 | 47.8 |
| Adam34l | 3 | 77.5 | 51.6 |
| Gucy2f | 1 | 90.8 | 106 |
| Gucy2f | 2 | 82.4 | 89.3 |
| Gucy2f | 3 | 65.4 | 69.7 |
| Cd247 | 1 | 67 | 62.1 |
| Cd247 | 2 | 73 | 86.7 |
| Cd247 | 3 | 66.3 | 64.2 |
| Ptpn12 | 1 | 78.3 | 81.8 |
| Ptpn12 | 2 | 128 (active) | 62.4 |
| Ptpn12 | 3 | 87.8 | 70.5 |
